This note sets out measurements from PMC7607167.

Protein sequences, listed by entry. Tags and fused reporters are not part of them.
UniProt Q9BYV9: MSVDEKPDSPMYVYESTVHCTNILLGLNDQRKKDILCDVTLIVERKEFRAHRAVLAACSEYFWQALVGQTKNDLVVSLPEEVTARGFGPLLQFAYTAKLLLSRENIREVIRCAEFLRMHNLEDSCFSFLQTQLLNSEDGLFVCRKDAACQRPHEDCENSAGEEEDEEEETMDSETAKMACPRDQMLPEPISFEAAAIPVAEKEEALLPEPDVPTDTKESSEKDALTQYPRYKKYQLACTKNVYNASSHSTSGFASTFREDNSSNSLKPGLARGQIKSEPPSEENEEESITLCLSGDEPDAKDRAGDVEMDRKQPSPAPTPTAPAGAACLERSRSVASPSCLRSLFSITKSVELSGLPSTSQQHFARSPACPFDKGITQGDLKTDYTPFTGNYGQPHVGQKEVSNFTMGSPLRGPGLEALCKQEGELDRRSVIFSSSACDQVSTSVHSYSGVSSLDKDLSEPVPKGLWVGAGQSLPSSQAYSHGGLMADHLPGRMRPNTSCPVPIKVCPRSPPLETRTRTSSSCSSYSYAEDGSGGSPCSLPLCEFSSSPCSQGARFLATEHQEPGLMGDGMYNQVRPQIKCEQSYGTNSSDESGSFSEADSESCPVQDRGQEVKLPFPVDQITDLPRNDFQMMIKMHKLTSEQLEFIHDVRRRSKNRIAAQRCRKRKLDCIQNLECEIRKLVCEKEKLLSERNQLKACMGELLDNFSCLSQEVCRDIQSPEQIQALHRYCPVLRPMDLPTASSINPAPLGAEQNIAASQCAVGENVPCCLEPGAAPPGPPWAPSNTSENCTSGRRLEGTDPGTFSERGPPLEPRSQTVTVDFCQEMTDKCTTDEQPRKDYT
UniProt P35637: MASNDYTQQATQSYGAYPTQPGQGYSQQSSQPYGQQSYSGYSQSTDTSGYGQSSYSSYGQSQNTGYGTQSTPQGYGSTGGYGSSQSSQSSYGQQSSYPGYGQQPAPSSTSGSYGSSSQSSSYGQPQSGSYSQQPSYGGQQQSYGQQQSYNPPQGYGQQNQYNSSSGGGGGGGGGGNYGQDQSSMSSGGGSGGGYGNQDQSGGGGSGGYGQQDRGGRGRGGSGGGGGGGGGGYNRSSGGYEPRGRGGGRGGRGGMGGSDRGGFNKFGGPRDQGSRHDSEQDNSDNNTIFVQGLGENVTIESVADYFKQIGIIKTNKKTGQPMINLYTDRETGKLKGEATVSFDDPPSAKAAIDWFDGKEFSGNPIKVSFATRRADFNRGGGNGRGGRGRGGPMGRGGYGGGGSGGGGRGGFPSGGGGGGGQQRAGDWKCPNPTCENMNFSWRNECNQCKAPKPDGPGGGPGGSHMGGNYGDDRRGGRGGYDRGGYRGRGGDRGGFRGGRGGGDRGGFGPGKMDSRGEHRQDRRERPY

The target of test [1] is GST-BACH2 fusion protein (BTB and CNC homolog 2) (UniProt Q9BYV9). Description: pull-down; GST or GST-BACH2 bound to GSH-agarose beads incubated with purified His-FUS for 6 h at 4 °C; eluate blotted with anti-GST and anti-FUS; both purified.
Test [2] has as its target BTB and CNC homolog 2 (BACH2), endogenous (human (endogenous in glioma cells, U87 and U251)) (UniProt Q9BYV9). As to the kind of experiment: co-IP; Pierce Co-IP kit; antibody coupled to resin at 4 °C overnight; glioma cell lysates precipitated with anti-BACH2 or anti-IgG, blotted with anti-FUS and anti-BACH2.

No constants are given. Whether binding was seen depends on the method and setting. For some assays here: In cells and extracts the contact can be indirect. Some entries that bind do so weakly or less than the wild type.

For the substance “His-FUS fusion protein (fused in sarcoma) (from UniProt P35637 1-526)”, the binding entry in test [1] was “binds”.

As for “Fused in sarcoma (FUS), endogenous (from UniProt P35637 1-526)”, the binding result in test [2] was “binds”.
